Results deposited as PubChem BioAssay AID504764 (Drosophila RNAi Screening Center, 2011)
Screen: 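Knock-downs that raise or lower a Notch target reporter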 (primary screen). Cells: Drosophila Kc167 cells. Reagents: long dsRNA against Drosophila genes. Time to read-out: about 5 days (4 days dsRNA, then 24 h after transfection). Conditions: transfection of constitutively active membrane-tethered Notch lacking the extracellular domain, read 24 h later. Measurement: 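Firefly luciferase from an E(spl)m3 reporter with active Notch, plus control-promoter and uninduced reporter wells for normalisation; unnormalised counts, duplicate wells a and b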. Reading the numbers: induced reporter light, run 1, well a and induced reporter light, run 1, well b: higher = more light from the Notch target reporter with active Notch; control promoter light, run 1, well a and control promoter light, run 1, well b: higher = more light from the viral control promoter (cell number, transfection, viability); uninduced reporter light, run 1, well a: higher = more light from the Notch target reporter without active Notch. Active means: 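Hit if the duplicate-averaged log2 ratio of induced to control-promoter light gives a plate-wise z beyond ±2, or induced to uninduced beyond ±1.8; weak-control or discordant-duplicate wells dropped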. Meaning of the calls: active = modifier hit (raised or lowered Notch signal); inactive = not a hit.
The screen tested about 22,000 reagents; below is a random part of those that have a named target and a result. In the full data, 403 (1.9%) are marked active. 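Unnormalised raw counts per well; ratio z-scores behind the hit calls and whether each hit raises or lowers signal are not deposited.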 The record does not give: the amount of reagent.

With knock-down of Vajk3 [DRSC01883], the record shows induced reporter light, run 1, well a = 1.92e5; induced reporter light, run 1, well b = 2.35e5; control promoter light, run 1, well a = 1.87e5; control promoter light, run 1, well b = 1.97e5; uninduced reporter light, run 1, well a = 16905; inactive.
Silencing of CG31496 [DRSC12547] came out at: induced reporter light, run 1, well a = 1.61e5; induced reporter light, run 1, well b = 1.77e5; control promoter light, run 1, well a = 2.89e5; control promoter light, run 1, well b = 2.61e5; uninduced reporter light, run 1, well a = 12550; inactive.
Depletion of CG14322 [DRSC14801] resulted in: induced reporter light, run 1, well a = 1.96e5; induced reporter light, run 1, well b = 1.71e5; control promoter light, run 1, well a = 2.15e5; control promoter light, run 1, well b = 2.24e5; uninduced reporter light, run 1, well a = 16480; inactive.
For CG15452 [DRSC20523], the values are induced reporter light, run 1, well a = 79630; induced reporter light, run 1, well b = 1.11e5; control promoter light, run 1, well a = 1.28e5; control promoter light, run 1, well b = 1.34e5; uninduced reporter light, run 1, well a = 12050; inactive.
CG12419 (retired record) [DRSC14513] showed induced reporter light, run 1, well a = 10865; induced reporter light, run 1, well b = 11335; control promoter light, run 1, well a = 15555; control promoter light, run 1, well b = 15425; uninduced reporter light, run 1, well a = 1430; inactive.
Against Rexo5 [DRSC10981], the entry reads induced reporter light, run 1, well a = 1.93e5; induced reporter light, run 1, well b = 1.85e5; control promoter light, run 1, well a = 3.15e5; control promoter light, run 1, well b = 1.96e5; uninduced reporter light, run 1, well a = 10400; inactive.
For ohgt [DRSC15521], the values are induced reporter light, run 1, well a = 54645; induced reporter light, run 1, well b = 69975; control promoter light, run 1, well a = 55025; control promoter light, run 1, well b = 41935; uninduced reporter light, run 1, well a = 2800; inactive.
fng [DRSC11455] scored induced reporter light, run 1, well a = 2.47e5; induced reporter light, run 1, well b = 2.60e5; control promoter light, run 1, well a = 3.05e5; control promoter light, run 1, well b = 3.10e5; uninduced reporter light, run 1, well a = 23065; inactive.
Knock-down of fng [DRSC11887] gave: induced reporter light, run 1, well a = 1.23e5; induced reporter light, run 1, well b = 1.29e5; control promoter light, run 1, well a = 80015; control promoter light, run 1, well b = 86790; uninduced reporter light, run 1, well a = 9705; inactive.
With knock-down of ATP6AP2 [DRSC16420] the results were induced reporter light, run 1, well a = 86850; induced reporter light, run 1, well b = 1.25e5; control promoter light, run 1, well a = 1.02e5; control promoter light, run 1, well b = 1.22e5; uninduced reporter light, run 1, well a = 4815; inactive.
Depletion of CG1492 [DRSC19605] gave: induced reporter light, run 1, well a = 1.22e5; induced reporter light, run 1, well b = 1.34e5; control promoter light, run 1, well a = 2.92e5; control promoter light, run 1, well b = 2.29e5; uninduced reporter light, run 1, well a = 9280; inactive.
Knock-down of CG4151 [DRSC18351] resulted in: induced reporter light, run 1, well a = 1.47e5; induced reporter light, run 1, well b = 1.56e5; control promoter light, run 1, well a = 2.74e5; control promoter light, run 1, well b = 2.61e5; uninduced reporter light, run 1, well a = 12210; inactive.
Silencing of Cyp12c1 [DRSC11125] resulted in: induced reporter light, run 1, well a = 1.37e5; induced reporter light, run 1, well b = 1.17e5; control promoter light, run 1, well a = 96215; control promoter light, run 1, well b = 1.09e5; uninduced reporter light, run 1, well a = 9430; inactive.
Against CG34304 (retired record) [DRSC12810], the values are induced reporter light, run 1, well a = 1.43e5; induced reporter light, run 1, well b = 1.59e5; control promoter light, run 1, well a = 2.12e5; control promoter light, run 1, well b = 1.64e5; uninduced reporter light, run 1, well a = 12915; inactive.
arm [DRSC18738] showed induced reporter light, run 1, well a = 1.93e5; induced reporter light, run 1, well b = 2.38e5; control promoter light, run 1, well a = 2.27e5; control promoter light, run 1, well b = 2.61e5; uninduced reporter light, run 1, well a = 16540; inactive.
Against CG10920 [DRSC17765], the values are induced reporter light, run 1, well a = 2.05e5; induced reporter light, run 1, well b = 1.81e5; control promoter light, run 1, well a = 2.79e5; control promoter light, run 1, well b = 3.42e5; uninduced reporter light, run 1, well a = 13320; inactive.
CG14130 [DRSC10134] gave induced reporter light, run 1, well a = 1.65e5; induced reporter light, run 1, well b = 1.45e5; control promoter light, run 1, well a = 1.96e5; control promoter light, run 1, well b = 1.83e5; uninduced reporter light, run 1, well a = 6150; inactive.
With knock-down of nxf4 [DRSC12548] the results were induced reporter light, run 1, well a = 73965; induced reporter light, run 1, well b = 1.01e5; control promoter light, run 1, well a = 67995; control promoter light, run 1, well b = 68015; uninduced reporter light, run 1, well a = 5245; inactive.
With knock-down of Eig71Eh [DRSC11155], the screen gave induced reporter light, run 1, well a = 74080; induced reporter light, run 1, well b = 71565; control promoter light, run 1, well a = 71575; control promoter light, run 1, well b = 71865; uninduced reporter light, run 1, well a = 4150; inactive.
With knock-down of CG30076 [DRSC05494], the screen gave induced reporter light, run 1, well a = 1.82e5; induced reporter light, run 1, well b = 2.26e5; control promoter light, run 1, well a = 2.62e5; control promoter light, run 1, well b = 2.45e5; uninduced reporter light, run 1, well a = 19240; inactive.
Cf2 [DRSC00744] scored induced reporter light, run 1, well a = 15385; induced reporter light, run 1, well b = 12970; control promoter light, run 1, well a = 12255; control promoter light, run 1, well b = 9505; uninduced reporter light, run 1, well a = 7195; inactive.
Silencing of ft [DRSC00819] gave: induced reporter light, run 1, well a = 86220; induced reporter light, run 1, well b = 98115; control promoter light, run 1, well a = 57855; control promoter light, run 1, well b = 77940; uninduced reporter light, run 1, well a = 6610; active.
Silencing of apolpp [DRSC17216] came out at: induced reporter light, run 1, well a = 1.62e5; induced reporter light, run 1, well b = 1.74e5; control promoter light, run 1, well a = 2.19e5; control promoter light, run 1, well b = 2.22e5; uninduced reporter light, run 1, well a = 13260; inactive.
Depletion of CG14024 [DRSC00868] came out at: induced reporter light, run 1, well a = 1.63e5; induced reporter light, run 1, well b = 1.62e5; control promoter light, run 1, well a = 2.00e5; control promoter light, run 1, well b = 2.20e5; uninduced reporter light, run 1, well a = 11785; inactive.
CG14024 [DRSC02354] gave induced reporter light, run 1, well a = 1.31e5; induced reporter light, run 1, well b = 1.36e5; control promoter light, run 1, well a = 1.67e5; control promoter light, run 1, well b = 1.61e5; uninduced reporter light, run 1, well a = 12940; inactive.

Reprinted from above (4 entries):
CG1492 [DRSC19605] → induced reporter light, run 1, well a = 1.22e5; induced reporter light, run 1, well b = 1.34e5; control promoter light, run 1, well a = 2.92e5; control promoter light, run 1, well b = 2.29e5; uninduced reporter light, run 1, well a = 9280; Call = inactive
CG4151 [DRSC18351] → induced reporter light, run 1, well a = 1.47e5; induced reporter light, run 1, well b = 1.56e5; control promoter light, run 1, well a = 2.74e5; control promoter light, run 1, well b = 2.61e5; uninduced reporter light, run 1, well a = 12210; Call = inactive
Cyp12c1 [DRSC11125] → induced reporter light, run 1, well a = 1.37e5; induced reporter light, run 1, well b = 1.17e5; control promoter light, run 1, well a = 96215; control promoter light, run 1, well b = 1.09e5; uninduced reporter light, run 1, well a = 9430; Call = inactive
CG34304 (retired record) [DRSC12810] → induced reporter light, run 1, well a = 1.43e5; induced reporter light, run 1, well b = 1.59e5; control promoter light, run 1, well a = 2.12e5; control promoter light, run 1, well b = 1.64e5; uninduced reporter light, run 1, well a = 12915; Call = inactive
